# Experimental data reported in PMC7819943, “Rice protein-binding microarrays: a tool to detect cis-acting elements near promoter regions in rice”.
# The other results are listed elsewhere or left out.
# Target: T1, OsSMF1 (Oryza sativa, UniProt Q6ZLB0 1-436)
# T1 sequence: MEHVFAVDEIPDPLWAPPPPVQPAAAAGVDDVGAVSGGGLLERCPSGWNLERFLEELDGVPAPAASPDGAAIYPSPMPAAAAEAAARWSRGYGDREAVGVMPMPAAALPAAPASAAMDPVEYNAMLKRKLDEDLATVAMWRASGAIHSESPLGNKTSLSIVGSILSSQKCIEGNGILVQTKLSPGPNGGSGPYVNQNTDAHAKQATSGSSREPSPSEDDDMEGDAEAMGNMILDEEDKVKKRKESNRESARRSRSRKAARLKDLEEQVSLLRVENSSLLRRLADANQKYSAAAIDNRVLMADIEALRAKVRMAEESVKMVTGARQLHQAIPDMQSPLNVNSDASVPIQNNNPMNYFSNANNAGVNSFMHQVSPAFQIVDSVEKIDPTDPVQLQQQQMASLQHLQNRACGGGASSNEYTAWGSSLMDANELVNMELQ
# Assay: protein-binding microarray (RPBM); PBS, 2% BSA, 51.3 ng/ul salmon testes DNA, 50 uM zinc acetate, 200 nM TF, 25 C, 1 h; high values mean tight binding
# Conditions: protein: recombinant; tags: N-terminal polyhistidine and DsRed monomer fusion (pET32a); chain copies: 2; label: CyDye5-dUTP incorporated in the synthesized complementary strand; 3' TTTTT single-stranded linker to array surface; dsDNA, one strand shown
# In short: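 An Axon 4000B scanner gave the binding signal as per-feature fluorescence intensity in arbitrary units. This followed washing of a custom Agilent array that had been incubated for 1 h at 25 °C with 200 nM protein in PBS, 2% BSA, salmon testes DNA and 50 µM zinc acetate. The proteins were transcription factors fused at the N-terminus to polyhistidine and DsRed, expressed in E. coli BL21-CodonPlus and purified on Ni–NTA.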
row,Sequence,binding signal
1,TGCTGCTGCCCGCGGCGCGCGTGGCCGCCGCCGTCCTCCTCGGAGTCACCTAGTGCAG,3390 fluorescence intensity (a.u.)
2,ACACACGGCAGACGGCACCCACCACCCAAACTCGTTTTGGCGGAGTCACCTAGTGCAG,32600 fluorescence intensity (a.u.)
3,CTTTAATAATTGAACAGAGACGTATATAATTTTATAATTACGGAGTCACCTAGTGCAG,3720 fluorescence intensity (a.u.)
4,GTGAATCTCCGGAAAACGACGACACTATAACACTCGGCGTCGGAGTCACCTAGTGCAG,17400 fluorescence intensity (a.u.)
5,GTAGCGTAGACGTCTCCGCCCATTCCCAATTTCCCATTCCCGGAGTCACCTAGTGCAG,31500 fluorescence intensity (a.u.)
6,AAATTGCCACGTAAGTGCCATGTCATATGAAGACCGAGTCCGGAGTCACCTAGTGCAG,17800 fluorescence intensity (a.u.)
7,TAAAGCATCCGACACTGCCACGTGGGCCCACCGACCCGACCGGAGTCACCTAGTGCAG,22600 fluorescence intensity (a.u.)
8,ATTTAGTCTGTTACCACCTGTGGTTAGTACAAATGAAGTTCGGAGTCACCTAGTGCAG,20700 fluorescence intensity (a.u.)
9,TGGCCGCGCTCATCTTTCCGCCCGTATTACACGTACGCAGCGGAGTCACCTAGTGCAG,6660 fluorescence intensity (a.u.)
10,GTGTAGGTGGCGGCGGCGAGGACGTGGCGGAAGGGGCGGTCGGAGTCACCTAGTGCAG,5530 fluorescence intensity (a.u.)
11,TCTGACTGCCTCCGTCACTCCGTGCCTCGTTGGGAGCAGCCGGAGTCACCTAGTGCAG,5300 fluorescence intensity (a.u.)
12,TCCTCCTCCTCCGGCTGCCACCGCCACGCCTCCCCGCATGCGGAGTCACCTAGTGCAG,3160 fluorescence intensity (a.u.)
13,AAGTAAATCAACGTCCGTGATCTGCGCACGTCACCGGCTTCGGAGTCACCTAGTGCAG,6410 fluorescence intensity (a.u.)
14,AACTCAGGGGCGGATCAACACCCTGTCACCTGGTCCACGCCGGAGTCACCTAGTGCAG,3840 fluorescence intensity (a.u.)
15,CGTGTTGTTTCTTACGTACCATTTAAATAGTTACTCTCTCCGGAGTCACCTAGTGCAG,3620 fluorescence intensity (a.u.)
16,TTTTCGCACATGTTTGGTCACCTCTAGCACTCTGTCGAAGCGGAGTCACCTAGTGCAG,3600 fluorescence intensity (a.u.)
17,GGCGAGCCCAACTAACCCGTCCACATCCTCATTGAGTAGTCGGAGTCACCTAGTGCAG,4400 fluorescence intensity (a.u.)
18,TGGCCCTGTTCAGGTCGCTCTTCCACGTGTGTGACATTGGCGGAGTCACCTAGTGCAG,8260 fluorescence intensity (a.u.)
19,TGGTACGTAGTACGGACGACGTGTCATCCCCTTGCGGCGCCGGAGTCACCTAGTGCAG,8840 fluorescence intensity (a.u.)
20,CTTCAGTCATTTTCCATCACATCAACCTGTCATACACACACGGAGTCACCTAGTGCAG,4000 fluorescence intensity (a.u.)
21,TAAATTTCTGTAGCAATGTGCGGGGTCTCATCATCTAGTTCGGAGTCACCTAGTGCAG,3220 fluorescence intensity (a.u.)

row,Sequence,binding signal
1,ATGGTATGTCACGCTGTGACTTGCCTTAGCTAAGTCACTGCGGAGTCACCTAGTGCAG,3750 fluorescence intensity (a.u.)
2,AGAAGGTCGTGGCGAGGGAGGGTGGGCGACGGGCGTGGCGCGGAGTCACCTAGTGCAG,4140 fluorescence intensity (a.u.)
3,TCGGTTTCGCACAACCGTTGCGTGAAAATGACGTGGAATGCGGAGTCACCTAGTGCAG,12000 fluorescence intensity (a.u.)
4,GCCGTGCCGTGCCGTGCCGGCCCGCGGGCTCGGCCAGCGGCGGAGTCACCTAGTGCAG,30700 fluorescence intensity (a.u.)
5,CTCCCGCCTCCCGCCCACGCAATCACCTCTCTCTCTCTCTCGGAGTCACCTAGTGCAG,4200 fluorescence intensity (a.u.)
6,GAGTTGTAGTTGGATGGTTCCACGTCAATTCCGGAGTTGACGGAGTCACCTAGTGCAG,8790 fluorescence intensity (a.u.)
7,TCACCTCACGCTCACAGTGACACTGACACAAGTGCATAGCCGGAGTCACCTAGTGCAG,5090 fluorescence intensity (a.u.)
8,ATGAGGAGGAGAAGGTGCGGCGTCGGGCGGGGAGGAGCAGCGGAGTCACCTAGTGCAG,3410 fluorescence intensity (a.u.)
9,TGAAGGGTTGCTTTCTGCTATGTCAGTTATTTCGCTTTGTCGGAGTCACCTAGTGCAG,4530 fluorescence intensity (a.u.)
10,CCACCGCCACCGCCGCGTCGTCCTCTTCCACCAACACCTCCGGAGTCACCTAGTGCAG,4330 fluorescence intensity (a.u.)
11,CAAGCACCCGGCCGTCGAGCTTATCTCGCTGAGTCAAAAGCGGAGTCACCTAGTGCAG,3220 fluorescence intensity (a.u.)
12,AAGATCCGGCTGATTTTATTAGAAAAGGACAGGCGTGGGGCGGAGTCACCTAGTGCAG,21600 fluorescence intensity (a.u.)
13,CTCGTTCCTCCCCTCCCCTGTCAGTCTGCCACGACGGCACCGGAGTCACCTAGTGCAG,6800 fluorescence intensity (a.u.)
14,ATTCCAAGCCTTTTCAGATTAGGTGGCACCCTAATCCTTCCGGAGTCACCTAGTGCAG,3940 fluorescence intensity (a.u.)
15,TGCACGCACAGCCATCCACAAGCCATGAGCCGGCGCGAGACGGAGTCACCTAGTGCAG,3640 fluorescence intensity (a.u.)
16,CGGCCCACCCACCAACCACCACCACCACCACCACACCCGCCGGAGTCACCTAGTGCAG,3740 fluorescence intensity (a.u.)
17,GCCTGTGGCCCACGCCGTCAGTGGGAGTGGCGGTGTCGGGCGGAGTCACCTAGTGCAG,3960 fluorescence intensity (a.u.)
18,CAGCCTCCCATGGCCTCGTGGACCCGTAGTCCAACTGTCCCGGAGTCACCTAGTGCAG,3760 fluorescence intensity (a.u.)
19,GGGCTTCCTTCCAAGCTTCGTCGATCGTCCAGATCAGAGGCGGAGTCACCTAGTGCAG,3370 fluorescence intensity (a.u.)
20,GAGGGAGTACTTTACATGCGTGGCTGCGTAGCGTGTGCATCGGAGTCACCTAGTGCAG,3780 fluorescence intensity (a.u.)
21,GCTTCCCTTGATACACGTGGCAGCAGGGAAGCACAATTGCCGGAGTCACCTAGTGCAG,9970 fluorescence intensity (a.u.)

# Three neighbouring entries out of the list so far, quoted:
row,Sequence,binding signal
19,GGGCTTCCTTCCAAGCTTCGTCGATCGTCCAGATCAGAGGCGGAGTCACCTAGTGCAG,3370 fluorescence intensity (a.u.)
20,GAGGGAGTACTTTACATGCGTGGCTGCGTAGCGTGTGCATCGGAGTCACCTAGTGCAG,3780 fluorescence intensity (a.u.)
21,GCTTCCCTTGATACACGTGGCAGCAGGGAAGCACAATTGCCGGAGTCACCTAGTGCAG,9970 fluorescence intensity (a.u.)
